Data taken from PubChem BioAssay AID540303 (National Center for Advancing Translational Sciences (NCATS), 2011).
The campaign covered roughly 330,000 compounds. About 1,000 (0.3%) were called active. This list was built around the results that the source calls inconclusive (neither active nor inactive); the mix of calls is not that of the screen. Calls follow the shape of the dose curve; as a rule, active = well fitted inhibition curve with a large enough effect; inconclusive = small, poorly fitted or top-dose-only effect; inactive = no such curve, though single readings can be large or run the other way; tested in mouse RAW 264.7 cells. Potencies beside an inconclusive call are fits to weak or partial responses and may not hold up.

Experiment: qHTS for Inhibitors of Cell Surface uPA Generation; also: nearly all actives have a fitted effect of over 55% in size
Details: cell surface uPA generation assay; series mostly up to 38.3 µM
From the text: The overall objective of this project is to perform a quantitative high throughput screen (qHTS) to identify novel compounds that inhibit the generation of cell surface urokinase activity. The urokinase plasminogen activator (uPA) is one of the two primary endogenous systems that mediate plasminogen activation into plasmin. Members of this system, including uPA and its receptor (uPAR), are overexpressed in several malignant tumors. This system plays a major role in adhesion, migration, invasion and metastasis of cancer cells. Small molecule inhibitors of the uPA system will serve as probes to understand the molecular mechanisms of the uPA cascade and better understanding the microenvironmental circumstances that facilitate the activation of plasminogen by uPA, and finally may provide novel candidate agents for anticancer drug therapy.
[…] […] Upon inhibition of the uPA activation cascade, the subsequent cell surface uPA activity-dependent translocation of LF into the cytoplasm is inhibited. ATP-Lite is used to measure intracellular ATP concentrations, which remain increased if LF entry into the cytoplasm is inhibited. This validation assay was performed using a small set of validation compounds.
NIH Chemical Genomics Center [NCGC]
NIH Molecular Libraries Probe Centers Network [MLPCN]
Assay Submitter (PI): Thomas Bugge, National Institute of Dental and Craniofacial Research, NIH
Cultured RAW 264.7 were dispensed into 1536-well clear bottom, white walled tissue culture plates at a density of 4000 cells/well and were incubated overnight (12-16 h) at 37 C in a 5% CO2 incubator. Serially diluted compounds in 23 nl DMSO were added to cells. […] Compound and reagent-treated plates were incubated for 24 h at 37 C in a 5% CO2 incubator. Perkin Elmer ATPlitetrade mark 1 step (3 ul) was then added to each well. Luminescence was detected using a Perkin Elmer ViewLuxtrade mark plate reader.
1.Dispensing RAW 264.7 cells into 1536-well, white walled tissue culture plates at a density of 4000 cells/well (4 uL).
2.Incubation at 37 C in a 5% CO2 incubator overnight.
3.Serially diluting compounds (1:5 serial dilution; 0.0024 uM to […] final concentration) in 23 nl DMSO.
5.Incubating the compound and reagent-treated plates for 24 hours at 37 C in a 5% CO2 incubator.
6.Adding ATP-Lite (3 ul).
7.Reading plates by ViewLux with an exposure length of 5 seconds.
Potency is read from the fitted curve at half-maximal effect.

Compound | Potency
O=C(c1cccc(C(F)(F)F)c1)C1CCCN(Cc2cccn2-c2ncccn2)C1 (stereo not given) | inconclusive: 10 µM [inhibitor, single point]
CC(=O)CCC(=O)N1CCCC(CNC(=O)c2ccc(-c3ccccc3)cc2)C1 (stereo not given) | inconclusive: 12.6 µM [inhibitor, single point]
OC(CN1C2=NCCCN2c2ccccc21)c1ccc(Cl)cc1 (stereo not given) | inconclusive: 11.2 µM [inhibitor, single point]
CC(NC(=O)Nc1ccccc1)C(c1cccs1)N1CCN(c2ccccc2)CC1 (stereo not given) | inconclusive: 11.2 µM [inhibitor, single point]
CCN1C(=O)/C(=C2\SC(N3CCCCC3)=NC2=O)c2ccccc21 | inconclusive: 3.98 µM [inhibitor, partial curve]
Cc1csc(/C(=N\O)c2csc(C)n2)n1 | inactive
Cc1ccccc1Cn1nnc(C(=O)Nc2ccc3c(c2)OCCO3)c1N | inconclusive: 10 µM [inhibitor, single point]
Cc1cc(C2CCCCC2)n(O)c(=O)c1 | inconclusive: 1 µM [inhibitor, partial curve, poor fit]
O=C(Nc1ccc(N2CCN(C(=O)c3ccccc3)CC2)cc1)c1ccc([N+](=O)[O-])o1 | inconclusive: 5.62 µM [inhibitor, partial curve]
O=C(Nc1nc2ccccc2s1)c1ccc(F)cc1 | inconclusive: 7.08 µM [inhibitor, partial curve]
Cc1ccc(NC(=O)c2cccc3c2C(=O)N(C2CCCCC2)C3)c(C)c1 | inactive
CCn1c(NC(=S)Nc2ccccc2)nc2ccccc21 | inactive
O=C(CN1CCN(Cc2ccccc2Cl)C1=O)NCc1cccnc1 | inconclusive: 2.24 µM [inhibitor, single point]
CC(C)C(=O)c1cn(CC(=O)NCc2ccc3c(c2)OCO3)c2ccccc12 | inactive
N/C(=N\OC(=O)COc1ccc(Cl)cc1Cl)c1ccccn1 | inconclusive: 5.01 µM [inhibitor, partial curve, poor fit]
CCCc1nc2ccccc2n1CCOc1ccccc1 | inactive
CN(C)c1cccc2c1c(NC(=O)c1ccc(Cl)cc1)nn2C | inactive
O=C(NCCC1CCCCN1S(=O)(=O)c1ccccc1)C(=O)NCc1ccncc1 (stereo not given) | inactive
CCCn1nc(Oc2nc(NCC)nc(NC(C)C)n2)ccc1=O | inactive
C/C(=N\NC(=O)c1nnn(-c2nonc2N)c1CN1CCc2ccccc21)c1ccccc1O | inconclusive: 10 µM [inhibitor, single point]
CCOC(=O)Nc1ccc2c(c1)N(CCCN(C)C)c1ccccc1CC2 | inconclusive: 8.91 µM [inhibitor, partial curve, poor fit]
CC(NC(=O)C1CC1)C(c1cccs1)N1CCN(c2ccccc2)CC1 (stereo not given) | inactive
COc1ccc(C(=O)C2CCCN(Cc3sc(N4CCCC4)nc3Cl)C2)c(OC)c1 (stereo not given) | inconclusive: 12.6 µM [inhibitor, single point]
Cc1cccc(-n2c(C)cc(/C=N/O)c2C)c1 | inactive

Compound | Potency
Cc1ccc(C#N)c(SCC(=O)Nc2nccs2)n1 | active: 6.31 µM
CCCCCC(=O)Nc1cccc(C2=NOC3(C2)C[C@@H](C(N)=O)N(C(=O)CC(c2ccccc2)c2ccccc2)C3)c1 (stereo not given in full) | inconclusive: 8.91 µM [inhibitor, single point]
COc1cccc(-c2nc(C(=O)NCCCN3CCOCC3)cc3c2[nH]c2ccccc23)c1 | inconclusive: 15.8 µM [inhibitor, partial curve, poor fit]
CCCCn1nc(C(=O)N(CC(C)C)c2c(N)n(CCCC)c(=O)[nH]c2=O)c2ccccc2c1=O | inactive
O=C(Cn1cnc2c(OCc3ccccc3)ncnc21)NCc1ccc2[nH]ccc2c1 | inconclusive: 28.2 µM [inhibitor, single point]
CCN(CC(=O)NCc1ccc(Cl)cc1)C(=O)CSc1cccc(C(F)(F)F)c1 | inactive
Cc1ccccc1-c1cc2c(nn1)-c1ccccc1C2=O | inactive
O=C(Nc1nc2c(s1)CCCC2)C1COc2ccccc2O1 (stereo not given) | inconclusive: 10 µM [inhibitor, single point]
COc1ccc(CNc2nc(NCc3ccc(OC)cc3)c3[nH]cnc3n2)cc1 | inconclusive: 12.6 µM [inhibitor, single point]
Cc1ccc(C)c(N2CCN(C(=O)C3CCCN(S(=O)(=O)c4c(C)noc4C)C3)CC2)c1 (stereo not given) | inconclusive: 7.08 µM [inhibitor, single point]
COc1ccccc1N1CCN(c2cc(=O)n(Cc3ccc(F)cc3)c(=O)[nH]2)CC1 | active: 2.82 µM
COc1cc(/C=N/N=C(N)N)ccc1OCc1ccccc1Cl | inconclusive: 10 µM [inhibitor, partial curve]
CC(C)c1nc(N2CCN(C(=O)c3ccco3)CC2)c2c3c(sc2n1)CCCC3 | inconclusive: 28.2 µM [inhibitor, single point]
COc1cccc(C(=O)NCC(c2cccs2)N2CCc3ccccc32)c1 (stereo not given) | inconclusive: 12.6 µM [inhibitor, single point]
CCN1CCc2c(sc(NC(=O)c3ccc(S(=O)(=O)N(C)c4ccccc4)cc3)c2C(=O)NC)C1 | inactive
CCOc1ccccc1NC(=O)C(OC(=O)c1ccccc1O)c1ccccc1 (stereo not given) | inactive
Cc1cc(C)nc(SC(C)CNS(=O)(=O)c2ccccc2)n1 (stereo not given) | inactive
CCN(CC(=O)Nc1cc(S(=O)(=O)N2CCCCC2)ccc1Cl)Cc1ccccc1 | inactive
COc1ccc(-c2cc3ccc(O)cc3oc2=O)cc1 | inconclusive: 8.91 µM [inhibitor, partial curve, poor fit]
CSc1ncccc1C(=O)OCC(=O)c1[nH]c(C)c(C(C)=O)c1C | inactive
Cc1ccc(NC(=O)c2cccnc2)c([N+](=O)[O-])c1 | active: 3.55 µM
CN(Cc1cccs1)C(=O)c1ccc(S(=O)(=O)N2CCCCC2)cc1 | inactive
CCN(CC)CCOc1ccc2c(c1)C(=NO)c1cc(OCCN(CC)CC)ccc1-2 | inconclusive: 10 µM [inhibitor, single point]
COc1cc(OC)c(C(=O)/C=C/c2ccccc2)c(O)c1O | inconclusive: 8.91 µM [inhibitor, partial curve]

Entries listed so far containing a halogen, in the order listed:
Compound | Potency
O=C(c1cccc(C(F)(F)F)c1)C1CCCN(Cc2cccn2-c2ncccn2)C1 (stereo not given) | inconclusive: 10 µM [inhibitor, single point]
OC(CN1C2=NCCCN2c2ccccc21)c1ccc(Cl)cc1 (stereo not given) | inconclusive: 11.2 µM [inhibitor, single point]
O=C(Nc1nc2ccccc2s1)c1ccc(F)cc1 | inconclusive: 7.08 µM [inhibitor, partial curve]
O=C(CN1CCN(Cc2ccccc2Cl)C1=O)NCc1cccnc1 | inconclusive: 2.24 µM [inhibitor, single point]
N/C(=N\OC(=O)COc1ccc(Cl)cc1Cl)c1ccccn1 | inconclusive: 5.01 µM [inhibitor, partial curve, poor fit]
CN(C)c1cccc2c1c(NC(=O)c1ccc(Cl)cc1)nn2C | inactive
COc1ccc(C(=O)C2CCCN(Cc3sc(N4CCCC4)nc3Cl)C2)c(OC)c1 (stereo not given) | inconclusive: 12.6 µM [inhibitor, single point]
CCN(CC(=O)NCc1ccc(Cl)cc1)C(=O)CSc1cccc(C(F)(F)F)c1 | inactive
COc1ccccc1N1CCN(c2cc(=O)n(Cc3ccc(F)cc3)c(=O)[nH]2)CC1 | active: 2.82 µM
COc1cc(/C=N/N=C(N)N)ccc1OCc1ccccc1Cl | inconclusive: 10 µM [inhibitor, partial curve]
CCN(CC(=O)Nc1cc(S(=O)(=O)N2CCCCC2)ccc1Cl)Cc1ccccc1 | inactive

The list goes on.

Compound | Potency
CN(C)c1ccc(/C=C/c2c([N+](=O)[O-])c(=O)n(C)c(=O)n2C)cc1 | inconclusive: 10 µM [inhibitor, single point]
CC1CC2(CCCC2)N(C(=O)c2ccccc2)Cc2ccccc21 (stereo not given) | inconclusive: 0.01 µM [inhibitor, full curve, poor fit]
CC(NC(=O)COc1ccc(N(C)S(=O)(=O)c2ccccc2)cc1)c1ccccc1 (stereo not given) | inconclusive: 22.4 µM [inhibitor, single point]
Fc1c(F)c(F)c(/C=N/NC(=S)Nc2cccnc2)c(F)c1F | inactive
O=C(NCC1CCCO1)c1ccc2c3n(nc2c1)-c1ccccc1CO3 (stereo not given) | inconclusive: 5.01 µM [inhibitor, partial curve, poor fit]
Cc1ccc(Nc2nc(N)[nH]c(=O)c2N=O)cc1 | inconclusive: 12.6 µM [inhibitor, single point]
CCOC(=O)c1csc(NC(=O)CN2CCN(C)CC2)n1 | inconclusive: 31.6 µM [inhibitor, partial curve, poor fit]
O=C(Nc1ccc(F)cc1)Nc1cc(OCC(F)(F)F)cc(OCC(F)(F)F)c1 | inconclusive: 7.94 µM [inhibitor, partial curve, poor fit]
COc1ccc(C(=O)/C=C/c2ccc(OC)cc2OC)c(O)c1 | inconclusive: 22.4 µM [inhibitor, partial curve, poor fit]
O=C(O)c1cccc(N/N=C/C2=C(Cl)c3cc(Cl)ccc3SC2)c1 | inactive
COc1cc2c(-c3ccc4[nH]ccc4c3)c(-c3ccc(C#N)cc3)oc(=O)c2cc1OC | active: 2.51 µM
CC(C)C[C@H](CO)N(Cc1ccccc1)S(=O)(=O)N(Cc1ccccc1)[C@@H](CO)CC(C)C | inconclusive: 28.2 µM [inhibitor, single point]
CN1/C(=C/C(=O)COC(=O)C2COc3ccccc3O2)C(C)(C)c2ccccc21 (stereo not given) | inactive
C=CC[C@@H](CC(=O)N[C@@H](CO)Cc1ccccc1)C(=O)N[C@H](COC(=O)[C@H](CC=C)CC(=O)OC(C)(C)C)Cc1c[nH]c2ccccc12 | inconclusive: 12.6 µM [inhibitor, single point]
COc1ccc(N2CCN(C(=O)CCc3c[nH]c4ccccc34)CC2)cc1 | inactive
O=C(O)c1ccc(N/N=C/C(Br)=C/c2ccccc2)cc1 | inconclusive: 14.1 µM [inhibitor, single point]
O=C(O)c1ccccc1C(=O)Nc1ccc(Oc2ccc3ccccc3c2)cc1 | inactive
C=CCC[C@@H](Cc1ccc(F)cc1)C(=O)OC[C@H]1CCCN1C(=O)[C@@H](CC=C)CC(=O)N[C@H](CO)Cc1ccccc1 | inconclusive: 11.2 µM [inhibitor, single point]
C[C@@]12C(=O)Nc3cc(F)c(F)cc3C(=O)N1[C@H]1c3ccccc3OC[C@@H]1[C@@H]2c1ccccc1 | inconclusive: 7.94 µM [inhibitor, single point]
COc1ccc([C@@H]2CC=C(C(=O)O)[C@H](c3ccc(C(C)(C)C)cc3)N2S(=O)(=O)c2ccc(C)cc2)cc1OC | inactive
Cc1ccc(NC(=O)C2OCCc3ccccc32)cc1Cl (stereo not given) | inconclusive: 14.1 µM [inhibitor, single point]
COc1ccc(CCNc2ccc([N+](=O)[O-])cn2)cc1 | inconclusive: 3.16 µM [inhibitor, single point]

Ordered by SMILES length (rising): 3 of the compounds above.
Compound | Potency
Cc1ccc(Nc2nc(N)[nH]c(=O)c2N=O)cc1 | inconclusive: 12.6 µM [inhibitor, single point]
Fc1c(F)c(F)c(/C=N/NC(=S)Nc2cccnc2)c(F)c1F | inactive
COc1ccc([C@@H]2CC=C(C(=O)O)[C@H](c3ccc(C(C)(C)C)cc3)N2S(=O)(=O)c2ccc(C)cc2)cc1OC | inactive
